Measurements from article doi:10.1101/2023.08.05.552090.
Results are given in words; binding and its absence hold for the method and conditions named. Some entries that bind do so weakly or less than the wild type.

Experiments:
Assay in all cases: co-purification
[1] = molecular target: T1, S. cerevisiae Mre11 R184E (S. cerevisiae) (UniProt P32829)
T1 sequence: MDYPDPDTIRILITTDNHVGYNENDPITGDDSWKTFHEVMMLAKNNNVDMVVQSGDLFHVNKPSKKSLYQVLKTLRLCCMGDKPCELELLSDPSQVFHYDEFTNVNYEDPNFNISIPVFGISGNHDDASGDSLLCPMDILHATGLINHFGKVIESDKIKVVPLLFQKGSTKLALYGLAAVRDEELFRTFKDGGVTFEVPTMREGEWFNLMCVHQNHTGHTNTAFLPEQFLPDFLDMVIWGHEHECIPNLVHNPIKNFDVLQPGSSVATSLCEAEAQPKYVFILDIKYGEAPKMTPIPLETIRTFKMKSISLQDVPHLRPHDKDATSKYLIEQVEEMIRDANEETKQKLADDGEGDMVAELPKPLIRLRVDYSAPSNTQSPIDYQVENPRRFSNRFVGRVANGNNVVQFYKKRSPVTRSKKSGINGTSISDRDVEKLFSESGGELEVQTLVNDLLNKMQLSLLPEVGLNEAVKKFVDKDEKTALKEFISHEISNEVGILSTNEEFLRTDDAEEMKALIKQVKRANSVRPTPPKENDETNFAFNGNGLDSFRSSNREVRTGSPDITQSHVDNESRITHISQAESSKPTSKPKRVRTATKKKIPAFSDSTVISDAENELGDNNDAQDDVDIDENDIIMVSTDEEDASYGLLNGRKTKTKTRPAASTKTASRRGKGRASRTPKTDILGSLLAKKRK

[2] = molecular target: T2, S. cerevisiae Mre11 R181E (S. cerevisiae) (UniProt P32829)
T2 sequence: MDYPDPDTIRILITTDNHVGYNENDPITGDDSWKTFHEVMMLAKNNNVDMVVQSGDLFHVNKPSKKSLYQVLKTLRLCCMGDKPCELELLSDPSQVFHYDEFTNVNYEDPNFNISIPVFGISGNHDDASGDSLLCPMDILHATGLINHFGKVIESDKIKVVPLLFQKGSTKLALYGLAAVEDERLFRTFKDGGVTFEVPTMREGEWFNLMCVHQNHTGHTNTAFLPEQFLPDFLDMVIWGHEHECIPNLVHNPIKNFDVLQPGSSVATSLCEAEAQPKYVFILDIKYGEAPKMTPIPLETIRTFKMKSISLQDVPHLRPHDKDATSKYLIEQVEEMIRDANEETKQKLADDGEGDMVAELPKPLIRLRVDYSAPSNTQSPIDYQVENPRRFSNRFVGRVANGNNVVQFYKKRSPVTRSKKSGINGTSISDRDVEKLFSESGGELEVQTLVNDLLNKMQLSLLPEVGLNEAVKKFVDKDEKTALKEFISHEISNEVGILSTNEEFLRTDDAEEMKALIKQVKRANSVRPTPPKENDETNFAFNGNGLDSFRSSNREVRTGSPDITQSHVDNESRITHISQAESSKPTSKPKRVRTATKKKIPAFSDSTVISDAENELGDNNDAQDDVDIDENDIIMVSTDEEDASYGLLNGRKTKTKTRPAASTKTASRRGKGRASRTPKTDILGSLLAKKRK

[3] = molecular target: T3, S. cerevisiae Mre11 E183R (S. cerevisiae) (UniProt P32829)
T3 sequence: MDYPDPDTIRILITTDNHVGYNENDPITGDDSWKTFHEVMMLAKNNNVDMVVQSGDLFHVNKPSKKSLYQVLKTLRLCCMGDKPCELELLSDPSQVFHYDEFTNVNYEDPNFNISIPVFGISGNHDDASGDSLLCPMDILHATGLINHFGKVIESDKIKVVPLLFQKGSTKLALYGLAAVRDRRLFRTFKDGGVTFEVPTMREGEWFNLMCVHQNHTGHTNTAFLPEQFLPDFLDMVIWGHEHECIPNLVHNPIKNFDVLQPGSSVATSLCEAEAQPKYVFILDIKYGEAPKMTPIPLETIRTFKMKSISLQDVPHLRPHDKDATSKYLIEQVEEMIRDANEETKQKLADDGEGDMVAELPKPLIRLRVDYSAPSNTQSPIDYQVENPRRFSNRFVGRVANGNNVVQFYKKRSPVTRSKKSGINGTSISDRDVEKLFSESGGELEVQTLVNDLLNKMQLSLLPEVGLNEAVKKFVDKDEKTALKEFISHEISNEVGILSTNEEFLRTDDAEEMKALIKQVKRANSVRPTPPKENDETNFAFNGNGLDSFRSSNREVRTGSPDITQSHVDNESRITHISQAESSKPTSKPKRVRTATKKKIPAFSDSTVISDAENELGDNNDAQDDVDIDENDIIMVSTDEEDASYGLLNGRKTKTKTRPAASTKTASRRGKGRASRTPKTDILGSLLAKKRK

[4] = molecular target: T4, S. cerevisiae Mre11 R187E (S. cerevisiae) (UniProt P32829)
T4 sequence: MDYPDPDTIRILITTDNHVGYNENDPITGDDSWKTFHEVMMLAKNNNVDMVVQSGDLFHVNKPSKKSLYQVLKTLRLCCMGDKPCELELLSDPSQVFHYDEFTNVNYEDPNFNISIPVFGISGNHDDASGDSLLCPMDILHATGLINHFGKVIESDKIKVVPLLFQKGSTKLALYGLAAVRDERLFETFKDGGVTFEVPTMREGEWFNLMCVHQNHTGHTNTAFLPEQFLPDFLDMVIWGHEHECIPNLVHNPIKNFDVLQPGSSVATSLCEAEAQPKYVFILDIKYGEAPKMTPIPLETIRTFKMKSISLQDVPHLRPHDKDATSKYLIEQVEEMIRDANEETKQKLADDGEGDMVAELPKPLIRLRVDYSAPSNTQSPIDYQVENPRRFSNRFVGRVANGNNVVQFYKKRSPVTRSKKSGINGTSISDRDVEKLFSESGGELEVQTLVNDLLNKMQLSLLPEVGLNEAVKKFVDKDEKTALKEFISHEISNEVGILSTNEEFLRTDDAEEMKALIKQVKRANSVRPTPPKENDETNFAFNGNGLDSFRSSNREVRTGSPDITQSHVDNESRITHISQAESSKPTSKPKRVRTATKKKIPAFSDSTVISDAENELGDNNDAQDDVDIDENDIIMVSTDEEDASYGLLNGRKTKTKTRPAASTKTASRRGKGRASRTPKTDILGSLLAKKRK

[5] = molecular target: T5, S. cerevisiae Mre11 (S. cerevisiae) (UniProt P32829)
T5 sequence: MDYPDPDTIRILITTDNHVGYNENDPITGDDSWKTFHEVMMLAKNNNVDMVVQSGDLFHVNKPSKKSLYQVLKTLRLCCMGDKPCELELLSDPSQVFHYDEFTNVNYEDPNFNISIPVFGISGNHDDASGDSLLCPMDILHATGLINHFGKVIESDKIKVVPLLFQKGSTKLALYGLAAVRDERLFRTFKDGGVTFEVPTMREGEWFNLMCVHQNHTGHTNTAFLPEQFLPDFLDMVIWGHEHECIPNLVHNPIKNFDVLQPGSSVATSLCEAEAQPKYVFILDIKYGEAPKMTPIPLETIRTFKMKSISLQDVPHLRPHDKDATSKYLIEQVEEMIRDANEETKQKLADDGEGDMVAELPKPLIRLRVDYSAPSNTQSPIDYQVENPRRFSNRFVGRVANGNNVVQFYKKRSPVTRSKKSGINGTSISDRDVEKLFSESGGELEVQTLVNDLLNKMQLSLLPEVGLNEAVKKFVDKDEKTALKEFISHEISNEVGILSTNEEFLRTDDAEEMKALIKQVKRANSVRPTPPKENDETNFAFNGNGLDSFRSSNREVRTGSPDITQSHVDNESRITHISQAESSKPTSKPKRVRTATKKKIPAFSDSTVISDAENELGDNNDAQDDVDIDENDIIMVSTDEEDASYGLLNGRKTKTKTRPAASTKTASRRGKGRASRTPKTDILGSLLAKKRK

Measured: binding

B1: S. cerevisiae Xrs2 (protein, UniProt P33301 1-854)
chain: MWVVRYQNTLEDGSISFISCCLQAFKTYSIGRSSKNPLIIKNDKSISRQHITFKWEINNSSDLKHSSLCLVNKGKLTSLNKKFMKVGETFTINASDVLKSTIIELGTTPIRIEFEWINEVWNIPPHLTQFRTMLSEYGISTEISINDIPANLMISDYPKSEDNSIRELYALVSTIPMKKSRFLMELCNTLLPTSKTNLKFDEMWNDMISNPEYNVFDFDPNILLSKFMRLNNIRVLTTIKSEPRLSSLLRTFNINLFAFDNIDSLYKYVDSLEASTEYLILTTTDKKENGKILCTIKTMLTSIIDGTLSAVINMKGASSRTLDNGKFDQISEGMSTILKTSRAPEVEASPVVSKKRKLNRRRVLPLDSLDFFAGGLSTKTLSENRSLTDAKRLNCGAESKTVISSPNIAEADEKHAPFLQNALKPTEDIGKKSGHSSPGAIIVSSPNLGTVNTSEDSLDKSLQSHKLPQPSLPEVAGIGSQTISSNSADYETAAVNSMDDAEVTKNFRVNHHQNIEQPSKNIRKLSNYSREISSPLQENCKSPVKELSIKEKSGTPHAFVEAIQETKNREVKRVKSTIVELKDEELSEEAINQLKNLAIVEPSNNLLRKSFDSEGNKTSRTTEKWENSLMEPEWHKRKNFKTFVKVRPKSKAHKEEGKNNTQSSDFIRNAAFLITRNYVPLKKYSKKDTTTKWGTEENEDMFALTEMERFGSNTFMSDNINSNTIQKRSQALNRFTNEDSSNEGEEDSFSFSRCSGTAASVQPLKNKIFITDEDDLGDIDDKSDRLNHRENNRNLFVVKEMNLRPNLSEECSKQSRHSRSATSRSRGSFGASNNGDGDDDDDDGPKFTFKRRKG
binds: all assays above
